Negatives hold for the conditions tested.
Legend:
Assay in all cases: filter binding
[1] = target: alpha-synuclein R-type fibril (Homo sapiens) (UniProt P37840); settings: 37 C, 1 uM (screen) or 250 nM (Kd) monomer equivalents, purified recombinant protein, label: 32P
[2] = target: alpha-synuclein F-type fibril (Homo sapiens) (UniProt P37840); settings: 37 C, 1 uM (screen) or 250 nM (Kd) monomer equivalents, purified recombinant protein, label: 32P
[3] = target: alpha-synuclein monomer (Homo sapiens) (UniProt P37840); settings: 2'-F pyrimidines; helper DNA with two LNA G paired to the 3' end; 37 C; 1 uM (screen) or 250 nM (Kd) monomer equivalents; purified recombinant protein; label: 32P
[4] = 2'-F pyrimidines, helper DNA with two LNA G paired to the 3' end

**Q.** Does “ATACTGCCATTCATTTCATTTGCCTGTGGTGTTGGGGCGGGTGCGTTTAGATATCAGCATGTGTCA [T-SO508 DNA]” bind ([1]; single-stranded DNA)?
**A.** binds

**Q.** Does “ATACTGCCATTCATTTCATTTGCCTGTGGTGTTGGGGCGGGTGCGTTTAGATATCAGCATGTGTCA [T-SO508 DNA]” bind ([2]; single-stranded DNA)?
**A.** binds

**Q.** Which results are given for “ATAGTCCCATCATTCATTGTATGGTACGGCGCGGTGGCGGGTGCGTGGAGATATTAGCAAGTGTCA [M5-15 DNA]”?
**A.** binding result ([1]; single-stranded DNA): no binding; binding result ([2]; single-stranded DNA): no binding

**Q.** Does “ATCGAGTGGACGAGTGCCTCCGGTACGAGCTGTCTGATGGGTTTGCGCGCAGGATCCA [F5R2 DNA]” bind ([1]; single-stranded DNA)?
**A.** no binding

**Q.** Does “ATCGAGTGGACGAGTGCCTCCGGTACGAGCTGTCTGATGGGTTTGCGCGCAGGATCCA [F5R2 DNA]” bind ([2]; single-stranded DNA)?
**A.** no binding

**Q.** Which results are given for “ATCGAGTGTGTACGGGGTCCGGTAGGGTGGCGAGGTCTTCCTGTCGTAGCAGGATCCA [F5R1 DNA]”?
**A.** binding result ([1]; single-stranded DNA): binds; binding result ([2]; single-stranded DNA): binds

**Q.** Does “GGGAGAGUAUCCGUUGAGGCUGAACGCGUUUACUCCGCUAGUACGAACCCGAUUGCCCAGAUCGGAAGAGCGUCGUGUAGGGCAUUGCCCCAGCGUGACUGCCUA / TAGGCAGTCACGCTGGGGCAATGC [F004 RNA]” bind [1, 4]?
**A.** no binding

**Q.** Does “GGGAGAGUAUCCGUUGAGGCUGAACGCGUUUACUCCGCUAGUACGAACCCGAUUGCCCAGAUCGGAAGAGCGUCGUGUAGGGCAUUGCCCCAGCGUGACUGCCUA / TAGGCAGTCACGCTGGGGCAATGC [F004 RNA]” bind [3]?
**A.** no binding

**Q.** What does the source list for “GGGAGAGUAUCCGUUGAGGCUGAAGCCAUGCUGUCAACUUUUAACUCGUCACCGCUCGAGAUCGGAAGAGCGUCGUGUAGGGCAUUGCCCCAGCGUGACUGCCUA / TAGGCAGTCACGCTGGGGCAATGC [F005 RNA]”?
**A.** binding result [1, 4]: no binding; binding result [3]: no binding

**Q.** What does the source list for “GGGAGAGUAUCCGUUGAGGCUGAAUCCGACCAACCCAACGCGUUUACCUCACCUGCAAGAUCGGAAGAGCGUCGUGUAGGGCAUUGCCCCAGCGUGACUGCCUA / TAGGCAGTCACGCTGGGGCAATGC [F001 RNA]”?
**A.** binding result [1, 4]: no binding; binding result [3]: no binding; binding result [2, 4]: no binding

**Q.** Does “GGGAGAGUAUCCGUUGAGGCUGAAUCGGCCACAGUCGACAACUUUGAAAUCCACCUGCAGAUCGGAAGAGCGUCGUGUAGGGCAUUGCCCCAGCGUGACUGCCUA / TAGGCAGTCACGCTGGGGCAATGC [F015 RNA]” bind [1, 4]?
**A.** no binding

**Q.** Does “GGGAGAGUAUCCGUUGAGGCUGAAUCGGCCACAGUCGACAACUUUGAAAUCCACCUGCAGAUCGGAAGAGCGUCGUGUAGGGCAUUGCCCCAGCGUGACUGCCUA / TAGGCAGTCACGCTGGGGCAATGC [F015 RNA]” bind [3]?
**A.** no binding

**Q.** What does the source list for “GGGAGAGUAUCCGUUGAGGCUGACAACGCGUUUACCUCACACCACGUCAUCCGUUGCCAGAUCGGAAGAGCGUCGUGUAGGGCAUUGCCCCAGCGUGACUGCCUA / TAGGCAGTCACGCTGGGGCAATGC [F003 RNA]”?
**A.** binding result [1, 4]: no binding; binding result [3]: no binding; binding result [2, 4]: binds

**Q.** Does “GGGAGAGUAUCCGUUGAGGCUGACAACUUGAAAUCCCAACCCUGCAGCCGUGUCUGGUAGAUCGGAAGAGCGUCGUGUAGGGCAUUGCCCCAGCGUGACUGCCUA / TAGGCAGTCACGCTGGGGCAATGC [F073 RNA]” bind [1, 4]?
**A.** no binding

**Q.** Does “GGGAGAGUAUCCGUUGAGGCUGACAACUUGAAAUCCCAACCCUGCAGCCGUGUCUGGUAGAUCGGAAGAGCGUCGUGUAGGGCAUUGCCCCAGCGUGACUGCCUA / TAGGCAGTCACGCTGGGGCAATGC [F073 RNA]” bind [3]?
**A.** no binding

**Q.** What does the source list for “GGGAGAGUAUCCGUUGAGGCUGAGCAGCACAUGACCUCACCUUUUACUCUGCGCUGCAAGAUCGGAAGAGCGUCGUGUAGGGCAUUGCCCCAGCGUGACUGCCUA / TAGGCAGTCACGCTGGGGCAATGC [F020 RNA]”?
**A.** binding result [1, 4]: no binding; binding result [3]: no binding

**Q.** Does “GGGAGAGUAUCCGUUGAGGCUGAGUUUCCGAACGGCCCAACUUUGAAAUCCCCGCCCGAGAUCGGAAGAGCGUCGUGUAGGGCAUUGCCCCAGCGUGACUGCCUA / TAGGCAGTCACGCTGGGGCAATGC [F062 RNA]” bind [1, 4]?
**A.** no binding

**Q.** Does “GGGAGAGUAUCCGUUGAGGCUGAGUUUCCGAACGGCCCAACUUUGAAAUCCCCGCCCGAGAUCGGAAGAGCGUCGUGUAGGGCAUUGCCCCAGCGUGACUGCCUA / TAGGCAGTCACGCTGGGGCAATGC [F062 RNA]” bind [3]?
**A.** no binding

**Q.** Does “GGGAGAGUAUCCGUUGAGGCUGAGUUUCCGACCACGACCCAACGUUACUGCCCACCACAGAUCGGAAGAGCGUCGUGUAGGGCAUUGCCCCAGCGUGACUGCCUA / TAGGCAGTCACGCTGGGGCAATGC [F164 RNA]” bind [1, 4]?
**A.** no binding

**Q.** Does “GGGAGAGUAUCCGUUGAGGCUGAGUUUCCGACCACGACCCAACGUUACUGCCCACCACAGAUCGGAAGAGCGUCGUGUAGGGCAUUGCCCCAGCGUGACUGCCUA / TAGGCAGTCACGCTGGGGCAATGC [F164 RNA]” bind [3]?
**A.** no binding

**Q.** Does “GGGAGAGUAUCCGUUGAGGCUGAUCAGUCCAGUACGAGACGCGUUUACCUCCACUGCAAGAUCGGAAGAGCGUCGUGUAGGGCAUUGCCCCAGCGUGACUGCCUA / TAGGCAGTCACGCTGGGGCAATGC [F000 RNA]” bind [1, 4]?
**A.** no binding

**Q.** Does “GGGAGAGUAUCCGUUGAGGCUGAUCAGUCCAGUACGAGACGCGUUUACCUCCACUGCAAGAUCGGAAGAGCGUCGUGUAGGGCAUUGCCCCAGCGUGACUGCCUA / TAGGCAGTCACGCTGGGGCAATGC [F000 RNA]” bind [3]?
**A.** no binding

**Q.** Does “GGGAGAGUAUCCGUUGAGGCUGAUCCGACCAUGCUUCAACUUAUACCUCGGGGACUGUAGAUCGGAAGAGCGUCGUGUAGGGCAUUGCCCCAGCGUGACUGCCUA / TAGGCAGTCACGCTGGGGCAATGC [F124 RNA]” bind [1, 4]?
**A.** no binding

**Q.** Does “GGGAGAGUAUCCGUUGAGGCUGAUCCGACCAUGCUUCAACUUAUACCUCGGGGACUGUAGAUCGGAAGAGCGUCGUGUAGGGCAUUGCCCCAGCGUGACUGCCUA / TAGGCAGTCACGCTGGGGCAATGC [F124 RNA]” bind [3]?
**A.** no binding

**Q.** And the Kd [2, 4]?
**A.** 8.8 nM

**Q.** Which results are given for “GGGAGAGUAUCCGUUGAGGCUGAUCGAUCCACGUCCGACAACGCGUUUACUCGCCAUCAGAUCGGAAGAGCGUCGUGUAGGGCAUUGCCCCAGCGUGACUGCCUA / TAGGCAGTCACGCTGGGGCAATGC [F030 RNA]”?
**A.** binding result [1, 4]: no binding; binding result [3]: no binding; Kd [2, 4]: 6.6 nM

**Q.** Does “GGGAGAGUAUCCGUUGAGGCUGAUUCCGACCGCCGCAACUUAUAGGUAUCCCGCUGCAAGAUCGGAAGAGCGUCGUGUAGGGCAUUGCCCCAGCGUGACUGCCUA / TAGGCAGTCACGCTGGGGCAATGC [F002 RNA]” bind [1, 4]?
**A.** no binding

**Q.** Does “GGGAGAGUAUCCGUUGAGGCUGAUUCCGACCGCCGCAACUUAUAGGUAUCCCGCUGCAAGAUCGGAAGAGCGUCGUGUAGGGCAUUGCCCCAGCGUGACUGCCUA / TAGGCAGTCACGCTGGGGCAATGC [F002 RNA]” bind [3]?
**A.** no binding

**Q.** Does “GGGAGAGUAUCCGUUGAGGCUGAUUCCGACCGCCGCAACUUAUAGGUAUCCCGCUGCAAGAUCGGAAGAGCGUCGUGUAGGGCAUUGCCCCAGCGUGACUGCCUA / TAGGCAGTCACGCTGGGGCAATGC [F002 RNA]” bind [2, 4]?
**A.** no binding
